PubChem BioAssay AID1259405 | NCATS | 2018

Test: 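Knock-downs that lift recombinant protein yield in hamster ovary cells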 (primary screen)
Cells: Chinese hamster CHO-K1 ovary cells with stable secreted eGFP expression
Reagent: single siRNA against mouse genes, 0.8 pmol siRNA per well (2 µl of 400 nM stock)
Duration: 3 days
Detection: 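Percent of the per-plate non-targeting control median for intracellular GFP per well by laser scanning cytometry and for cell viability by ATP luminescence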
Direction: GFP, % of control: higher = more GFP per well, higher productivity; viability (ATP), % of control: higher = more viable cells (more ATP)
Rule for the call: 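Called active when intracellular GFP, relative to negative control, is at or above 120%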
The deposit covers about 50,000 reagents; below is an unselected part. In the full data, about 4,000 (8%) got an active call. 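Mouse siRNA library applied to hamster cells; one well for each siRNA.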 Entries without a mark were called inactive. Reagents against one gene are numbered here.

Target gene,siRNA no.,"GFP, % of control","viability (ATP), % of control"
Tff2,1,96.3,39.2
Tff2,2,83.3,77
Tff2,3,86,53.1
Stk11,1,44.4,52.6
B4galt6,1,71,65.8
B4galt6,2,114,141
B4galt6,3,80,92.2
Ube2j2,1,103,102
Ube2j2,2,66.4,68.7
Ube2j2,3,72,75.9
2610028H24Rik,1,78.8,60.7
2610028H24Rik,2,67.6,40.7
2610028H24Rik,3,63,78.8
H2-Eb1,1,59.8,54.6
H2-Eb1,2,80.5,74
H2-Eb1,3,71.6,97.5
Sox5,1,87.7,108
Sox5,2,65.6,56.1
Sox5,3,92.5,103
Flii,1,57.8,72.8
Flii,2,92.1,92.5
Ucp1,1,101,65.1
Ucp1,2,81.8,75.3
Ucp1,3,69.6,76.3
Med19,1,112,88.7
Med19,2,67.2,70.6
Med19,3,83.2,85.3
Zfp27,1,69.5,99.7
Zfp27,2,74.5,86.1
Zfp27,3,103,89.6
Mgat4b,1,95.6,67.8
Mgat4b,2,113,76
Mgat4b,3,62.4,77.6
Or4f47,1,71.3,81.3
Or4f47,2,66,60
Or4f47,3,49,96

Limited to “GFP, % of control”, for 4 of the entries above:
Med19 #2 = 67.2
Med19 #3 = 83.2
Zfp27 #1 = 69.5
Zfp27 #2 = 74.5

Further records:
Target gene,siRNA no.,"GFP, % of control","viability (ATP), % of control"
Dio2,1,79.4,102
Dio2,2,67.4,81.1
Dio2,3,41.4,62.7
Nsmf,1,47.2,63.4
Nsmf,2,93.5,71
Nsmf,3,123 (active),62
Arl9,1,66,47.8
Arl9,2,39.6,61.5
Arl9,3,79.2,69.9
Nkx6-2,1,38.5,29.7
Nkx6-2,2,68.3,52.7
Nkx6-2,3,47.4,49
Tshz3,1,63.4,80.4
Tshz3,2,103,100
Tshz3,3,77.2,107
Acadl,1,77.7,64.3
Acadl,2,22.9,39.6
Acadl,3,73.9,81.2
Jchain,1,84.3,79.6
Jchain,2,66.1,47.3
Jchain,3,64.6,86.7
